From PubChem BioAssay AID743255 (National Center for Advancing Translational Sciences (NCATS), 2014)
In all, about 390,000 compounds went through this assay and about 910 (0.23%) were called active. This list was built around the results that the source calls inconclusive (neither active nor inactive); the mix of calls is not that of the screen. Calls follow the shape of the dose curve; as a rule, active = well fitted inhibition curve with a large enough effect; inconclusive = small, poorly fitted or top-dose-only effect; inactive = no such curve, though single readings can be large or run the other way. Where the call is inconclusive, the potency comes from a doubtful curve fit.

Sequences of proteins named here, by UniProt entry; tags and fusion partners are left off. A change or cut given only in a name is not applied to a line headed by its entry.
UniProt O94782: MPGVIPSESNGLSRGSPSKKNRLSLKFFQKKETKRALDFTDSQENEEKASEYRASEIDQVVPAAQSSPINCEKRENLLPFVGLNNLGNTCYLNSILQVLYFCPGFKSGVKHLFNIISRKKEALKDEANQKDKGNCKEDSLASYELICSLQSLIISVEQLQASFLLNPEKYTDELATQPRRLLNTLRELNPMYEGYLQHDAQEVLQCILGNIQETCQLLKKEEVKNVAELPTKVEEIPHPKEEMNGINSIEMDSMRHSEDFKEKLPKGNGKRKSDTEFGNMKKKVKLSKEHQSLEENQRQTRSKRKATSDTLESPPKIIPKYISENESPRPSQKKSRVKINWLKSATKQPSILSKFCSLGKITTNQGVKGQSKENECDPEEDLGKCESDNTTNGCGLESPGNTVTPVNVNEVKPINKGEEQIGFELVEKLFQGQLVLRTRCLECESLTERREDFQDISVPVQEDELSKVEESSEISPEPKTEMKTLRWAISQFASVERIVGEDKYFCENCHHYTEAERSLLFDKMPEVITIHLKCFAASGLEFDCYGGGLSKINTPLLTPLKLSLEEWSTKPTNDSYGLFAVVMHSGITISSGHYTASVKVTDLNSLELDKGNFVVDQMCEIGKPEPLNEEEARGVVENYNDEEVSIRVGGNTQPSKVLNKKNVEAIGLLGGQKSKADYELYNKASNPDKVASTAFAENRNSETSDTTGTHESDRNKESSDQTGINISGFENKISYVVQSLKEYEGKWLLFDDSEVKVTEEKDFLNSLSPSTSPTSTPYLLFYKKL

Target: Ubiquitin carboxyl-terminal hydrolase 1 (Homo sapiens) (UniProt O94782)
Experiment: Inhibitors of USP1/UAF1: Primary Screen; also: nearly all actives have a fitted effect of over 60% in size
Conditions: recombinant USP1/UAF1, Ub-Rhodamine cleavage fluorescence; activity change, negative = inhibition: at 57.1 µM (top of the series)
Outline: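 USP1/UAF1 complex at 1 nM was preincubated with compound for 15 min at room temperature, then Ub-Rho substrate (150nM final) was added. Fluorescence (480/540 nm) was read kinetically, 6 reads every 60 seconds.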
% is scaled to controls: 0 for no effect and ±100 for the full control effect; potency is read from the fitted curve at half-maximal effect.

Potency, inconclusive:
CCN(CC)C(=O)[C@H]1C[C@H](CC(=O)NCCCOC)C(=O)N2CCc3c([nH]c4cc(-c5ccco5)ccc34)[C@]12C 5.01 µM [inhibitor, partial curve]
Cc1ccccc1-n1c(=O)cc(N2CCc3ccccc3C2)[nH]c1=O 39.8 µM [inhibitor, partial curve, poor fit]
Cc1ccc(OCC(=O)c2c(N)n(C)c(=O)n(C)c2=O)c([N+](=O)[O-])n1 44.7 µM [inhibitor, partial curve]
O=C(CSc1nnc(-c2ccccc2Br)o1)N1CCN(C(=O)c2ccco2)CC1 28.2 µM [inhibitor, partial curve, poor fit]
CCN(C(=O)c1sc2cc(OC)ccc2c1Cl)c1ccccc1 50.1 µM [inhibitor, partial curve, poor fit]
Cc1ccc(C2=NC(c3ccc(F)cc3)=Nc3ccc(C)cc3N2)cc1 6.31 µM [inhibitor, single point]
COc1ccccc1CN1CCCCCC1 35.5 µM [inhibitor, single point]
COc1ccccc1OCc1n[nH]c(=S)n1Cc1ccccc1 3.98 µM [inhibitor, partial curve]
COc1ccc(N2CC(NC(=O)Cc3cccs3)CC2=O)cc1 (centres undefined) 0.398 µM [inhibitor, full curve, poor fit]
C1=CC2c3ccccc3NC(c3ccncc3)C2C1 (centres undefined) 31.6 µM [inhibitor, partial curve]
COc1cc2c3nnc(-c4ccccc4)c-3cn(Cc3ccccc3F)c2cc1OC 35.5 µM [inhibitor, single point]
COc1cc(NC(=O)Cn2c(=O)n(CC(=O)NCCc3ccc(OC)c(OC)c3)c(=O)c3sccc32)cc(OC)c1 44.7 µM [inhibitor, partial curve, poor fit]
CC(C)NC(=O)COc1ccc(S(=O)(=O)N2CCCC2)cc1 22.4 µM [inhibitor, partial curve, poor fit]
O=C(COC(=O)c1ccc([N+](=O)[O-])o1)NCc1ccc2c(c1)OCO2 35.5 µM [inhibitor, partial curve, poor fit]
Cc1ccc(C(=O)c2oc3ccccc3c2NC(=O)c2cc(-c3ccc(Cl)cc3)on2)cc1 5.62 µM [inhibitor, partial curve, poor fit]
CCn1c(C)c(C)c2cc(C(=O)NCc3ccc(N(C)C)cc3)ccc21 126 µM [inhibitor, partial curve, poor fit]
Cc1ccc2ncc(S(=O)(=O)c3ccccc3)c(N3CCCCC3C)c2c1 (centres undefined) 0.251 µM [inhibitor, full curve, poor fit]
Cc1ccc(S(=O)(=O)N2CCOCC2)cc1NC(=O)COC(=O)CSc1ccc(Br)cc1C 39.8 µM [inhibitor, partial curve]
O=C(O)COCCN1CCN([C@H](c2ccccc2)c2ccc(Cl)cc2)CC1 89.1 µM [inhibitor, partial curve]
COc1ccc(S(=O)(=O)c2c(SC)nn(CC(=O)Nc3ccc(C)c(Cl)c3)c2N)cc1 0.112 µM [inhibitor, full curve, poor fit]
Cc1ccc(-c2noc(C(C)NC(=O)c3ccco3)n2)cc1 (centres undefined) 5.62 µM [inhibitor, full curve]
CCOc1cc(NC(=O)c2ccccc2C(=O)O)c(OCC)cc1NC(=O)c1ccccc1F 11.2 µM [inhibitor, full curve]
COC/C=C/C1=CC2=CC(=O)C(C)(OC(=O)c3cnc4ccccc4n3)C(=O)C2=CN1CCCOC(C)C (centres undefined) 44.7 µM [inhibitor, partial curve, poor fit]
O=C(NCc1ccc(F)cc1)c1ccc2c(c1)N(Cc1c(F)cccc1Cl)C(=O)CS2 56.2 µM [inhibitor, partial curve, poor fit]
COc1cc(NC(=O)c2cccnc2)ccc1NC(=O)c1ccccc1Cl 0.708 µM [inhibitor, full curve, poor fit]
NS(=O)(=O)c1ccc(N2CCCCCC2)c([N+](=O)[O-])c1 50.1 µM [inhibitor, partial curve, poor fit]
COc1ccc(Nc2nc(-c3cccc(OC)c3O)nc3ccccc23)cc1 50.1 µM [inhibitor, partial curve, poor fit]
C(=C\c1ccccc1)/CSc1nnc(-c2cccnc2)o1 0.631 µM [inhibitor, full curve, poor fit]
S=C1SCN(Cc2cccnc2)CN1Cc1ccccc1 35.5 µM [inhibitor, partial curve, poor fit]
O=C(Nc1ccc(Cl)c(Cl)c1)N1CC=C(c2ccccc2)CC1 35.5 µM [inhibitor, partial curve]

Activity change, negative = inhibition, inactive:
Cc1cc(C)nc(Nc2ccc(C(=O)O)cc2)n1 -5.85%
O=C(N1CCc2[nH]c3ccccc3c2C1)C(F)(F)F -10.4%
C(=N\n1cnnc1)/c1nc2ccccc2[nH]1 -10%
COc1ccc(C2=NC3(CCCCCC3)N(CC(=O)Nc3ccc(C)c(C)c3)C2=O)cc1 -13.2%
O=C(COC(=O)/C=C/c1cccc(C(F)(F)F)c1)NCc1ccco1 -15.1%
O=C(N/N=C\c1ccc([N+](=O)[O-])o1)c1cncc(Br)c1 -15%
CCC(C)(C)C1CCC(=NNc2nc3ccccc3[nH]2)CC1 (centres undefined) -7.34%
O=C(Nc1ccc(Cl)c([N+](=O)[O-])c1)c1ccc(NCCCN2CCOCC2)c([N+](=O)[O-])c1 -4.89%

3 consecutive entries already listed, for reference:
Activity change, negative = inhibition, inactive:
O=C(N/N=C\c1ccc([N+](=O)[O-])o1)c1cncc(Br)c1 -15%
CCC(C)(C)C1CCC(=NNc2nc3ccccc3[nH]2)CC1 (centres undefined) -7.34%
O=C(Nc1ccc(Cl)c([N+](=O)[O-])c1)c1ccc(NCCCN2CCOCC2)c([N+](=O)[O-])c1 -4.89%

Next part:

Activity change, negative = inhibition, inconclusive:
CC(=O)Nc1ccc(NC(=O)Cn2c(=O)n(-c3ccc(C)cc3)c(=O)c3oc4ccccc4c32)cc1 -16.4% [inhibitor]
